# PubChem BioAssay AID504786 – Drosophila RNAi Screening Center, 2011
# Aim: 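Positive regulators of HIF-driven reporter output in Drosophila cells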 (primary screen)
# System: Drosophila S2 cells with a stable HIF luciferase reporter
# Knock-down reagent: long dsRNA against Drosophila genes, about 0.2 µg dsRNA per well of a 384-well plate
# Time to read-out: three days of knock-down, then 20 h of DFO before reading
# Treatment: desferrioxamine (DFO) at 100 µM, an iron chelator that mimics hypoxia, for 20 h
# Detection: 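HIF reporter luminescence in cells given 100 µM DFO for 20 h, using the mouse ldh-a hypoxia-response element, scored as per-plate z-scores; higher means greater loss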
# Reading the numbers: z-score: higher = stronger loss of HIF reporter signal
# The screen tested about 21,000 reagents; this is a random part of those with a known target gene and a result. 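Primary screen; positive scores mean lost reporter signal, so the sign may be inverted from the usual convention.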 Names joined by + are all predicted targets of the reagent. Further read-outs or replicates are left out here.
gene,DRSC id,"z-score, replicate 1"
mst,DRSC20582,-0.2
D19A,DRSC11133,2.6
Ocho,DRSC11239,-0.2
CG13010,DRSC19529,0
CG1840,DRSC19806,-0.4
Pglym87,DRSC15252,-0.4
LTV1,DRSC05951,-0.2
CG10680,DRSC02093,-0.3
kappaB-Ras + CG30503,DRSC06619,-0.3
kappaB-Ras + CG30503,DRSC07636,-0.2
gukh,DRSC14768,-0.1
gukh,DRSC15806,-0.6
gukh,DRSC15944,-0.1
snky,DRSC09838,-0.2
raptor,DRSC18359,4.7
Wdr82,DRSC02595,-0.1
CG6923,DRSC16136,-0.2
hlk,DRSC05021,0
hlk,DRSC05022,-0.2
CG4882,DRSC04495,0.3
Hsc70-5,DRSC07442,0
sofe,DRSC19751,-0.2
CG9682,DRSC16536,-0.3
Cpr64Ab,DRSC08461,-0.4
CG31798,DRSC01702,-0.2
phtf,DRSC05023,0
Rack1,DRSC03405,-0.5
Hers,DRSC19429,-0.3
Hers,DRSC19676,0.1
Tpc1,DRSC15614,-0.4
Tpc1,DRSC16074,-0.4
Ir60d,DRSC04218,-0.2
nonA,DRSC20357,-0.1
clt,DRSC04621,-0.2
CG12419 (retired record),DRSC14513,-0.1
Snrk,DRSC07192,-0.2
CG5516,DRSC15826,0.2
CG1738,DRSC19772,-0.1
FIG4,DRSC00515,-0.2
CG3224,DRSC18295,-0.2
CG15443,DRSC00455,-0.2
CG32645,DRSC19683,0.1
CG32645,DRSC19889,-0.2
Ca-alpha1D,DRSC03284,-0.3
OtopLc,DRSC18082,-0.2
OtopLc,DRSC18083,0
OtopLc,DRSC18132,-0.3
CG11155,DRSC17184,-0.2
CG11155,DRSC17205,-0.3
Ilp5,DRSC08998,-0.2
hoe2,DRSC00459,-0.4
Mur11Da,DRSC18960,-0.2
c12.1,DRSC18750,-0.2
Jhbp3,DRSC12247,-0.2
MRP,DRSC02942,-0.3
CG17777,DRSC18137,-0.3
CG15571,DRSC18059,-0.2
Osi23,DRSC15074,-0.4
ABCB7,DRSC08603,-0.3
CG42789,DRSC13793,-0.2
qsm,DRSC05896,-0.7
qsm,DRSC06393,-0.3
Ugt37C1,DRSC07416,-0.1
CG8399,DRSC07163,-0.2
CG14013,DRSC02344,-0.3
CG4830,DRSC15657,3.1
lectin-24Db,DRSC00553,-0.3
ocn,DRSC17020,-0.2
CG4476,DRSC10424,-0.1
arg,DRSC18737,-0.2
Marf1,DRSC03747,-0.2
Marf1,DRSC03774,-0.2
CG17570,DRSC01770,0.1
CG17570,DRSC03754,-0.2
CG1662,DRSC19754,-0.2
Ttc26,DRSC15591,-1
CG32277,DRSC08196,-0.4
Sas10,DRSC18355,-0.1
Nup75,DRSC06947,-0.1
ball,DRSC14145,-0.6
CG4282,DRSC06865,-0.3
mtm,DRSC03576,-0.4
Wdr33,DRSC12162,1.6
